# ± gives the standard deviation of the averaged measurements. The list shows a part of the results.
# Target: T1, A0A087WW65|O75027 and related entries (UniProt O75027)
# T1 sequence (whole entry): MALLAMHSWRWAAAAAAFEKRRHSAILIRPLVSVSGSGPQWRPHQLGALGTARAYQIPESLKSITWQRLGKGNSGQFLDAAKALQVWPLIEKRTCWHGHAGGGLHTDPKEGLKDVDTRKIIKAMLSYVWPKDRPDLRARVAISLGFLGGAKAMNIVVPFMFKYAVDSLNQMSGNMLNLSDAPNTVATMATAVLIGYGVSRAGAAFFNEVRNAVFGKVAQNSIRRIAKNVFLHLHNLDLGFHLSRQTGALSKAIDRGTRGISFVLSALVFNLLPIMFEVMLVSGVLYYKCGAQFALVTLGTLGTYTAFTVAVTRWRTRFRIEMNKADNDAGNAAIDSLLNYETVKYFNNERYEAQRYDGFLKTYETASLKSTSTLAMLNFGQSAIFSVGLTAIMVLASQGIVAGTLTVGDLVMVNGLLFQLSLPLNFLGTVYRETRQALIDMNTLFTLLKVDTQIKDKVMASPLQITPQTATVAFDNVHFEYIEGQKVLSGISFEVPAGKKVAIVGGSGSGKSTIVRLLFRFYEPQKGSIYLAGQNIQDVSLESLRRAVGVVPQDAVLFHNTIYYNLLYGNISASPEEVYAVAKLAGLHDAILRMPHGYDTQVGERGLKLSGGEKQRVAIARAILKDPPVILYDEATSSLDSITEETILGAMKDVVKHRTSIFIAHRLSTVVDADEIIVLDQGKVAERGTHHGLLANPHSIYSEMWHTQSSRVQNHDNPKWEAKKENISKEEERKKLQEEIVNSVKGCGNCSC
# Assay: NP40-soluble protein abundance relative to vehicle (solubility fold change) (ratio); higher = more soluble protein in presence of GTP
# Protocol: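 Solubility proteome profiling in Jurkat crude lysate. Lysate was treated with Mg-GTP (0.1-10 mM) for 10 min at room temperature and 3 min at 37 °C, then solubilised with 0.8% NP40 and benzonase, followed by ultracentrifugation. Proteins were quantified by TMT10 LC-MS/MS; the value is the NP40-soluble abundance relative to the NP40-processed vehicle, from 3 independent experiments.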
structure (smiles),measurement,setting,value
Nc1nc2c(ncn2[C@@H]2O[C@H](COP(=O)(O)OP(=O)(O)OP(=O)(O)O)[C@@H](O)[C@H]2O)c(=O)[nH]1 [guanosine triphosphate],NP40-soluble protein abundance,concentration: 0.1mM,1.09 ± 0.042
same,NP40-soluble protein abundance,concentration: 0.5mM,1.05 ± 0.076
same,NP40-soluble protein abundance,concentration: 1mM,0.966 ± 0.042
same,NP40-soluble protein abundance,concentration: 2mM,0.959 ± 0.042
same,NP40-soluble protein abundance,concentration: 4mM,0.965 ± 0.096
same,NP40-soluble protein abundance,concentration: 6mM,0.939 ± 0.056
same,NP40-soluble protein abundance,concentration: 8mM,0.928 ± 0.037
same,NP40-soluble protein abundance,concentration: 10mM,0.887 ± 0.068
